Source: PMC8076227
No constants are given. Whether binding was seen depends on the method and setting. Binding seen in cells or lysates may run through a third protein. A yes stands for co-enrichment or nearness to the bait. Other partners may have been found.

Protein sequences, listed by entry. Tags and fused reporters are not part of them. Lines headed by an entry give the natural chain unless they say otherwise; changes in a name come on top. Chains listed by the source or under a name are the forms on record and can include a tag or linker.
UniProt Q06710: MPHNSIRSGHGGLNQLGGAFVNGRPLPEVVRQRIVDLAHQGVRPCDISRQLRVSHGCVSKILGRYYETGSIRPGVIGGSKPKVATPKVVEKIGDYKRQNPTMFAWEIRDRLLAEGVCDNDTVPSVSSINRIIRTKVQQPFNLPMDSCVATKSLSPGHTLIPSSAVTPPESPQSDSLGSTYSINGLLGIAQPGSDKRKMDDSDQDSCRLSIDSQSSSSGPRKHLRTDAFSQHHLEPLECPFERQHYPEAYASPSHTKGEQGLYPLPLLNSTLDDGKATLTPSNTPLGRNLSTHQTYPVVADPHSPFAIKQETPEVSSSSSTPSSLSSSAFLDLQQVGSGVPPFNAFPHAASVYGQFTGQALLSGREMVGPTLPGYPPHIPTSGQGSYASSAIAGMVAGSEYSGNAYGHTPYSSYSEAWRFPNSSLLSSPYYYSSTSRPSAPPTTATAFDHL
MECOM (Q03112-3, form named): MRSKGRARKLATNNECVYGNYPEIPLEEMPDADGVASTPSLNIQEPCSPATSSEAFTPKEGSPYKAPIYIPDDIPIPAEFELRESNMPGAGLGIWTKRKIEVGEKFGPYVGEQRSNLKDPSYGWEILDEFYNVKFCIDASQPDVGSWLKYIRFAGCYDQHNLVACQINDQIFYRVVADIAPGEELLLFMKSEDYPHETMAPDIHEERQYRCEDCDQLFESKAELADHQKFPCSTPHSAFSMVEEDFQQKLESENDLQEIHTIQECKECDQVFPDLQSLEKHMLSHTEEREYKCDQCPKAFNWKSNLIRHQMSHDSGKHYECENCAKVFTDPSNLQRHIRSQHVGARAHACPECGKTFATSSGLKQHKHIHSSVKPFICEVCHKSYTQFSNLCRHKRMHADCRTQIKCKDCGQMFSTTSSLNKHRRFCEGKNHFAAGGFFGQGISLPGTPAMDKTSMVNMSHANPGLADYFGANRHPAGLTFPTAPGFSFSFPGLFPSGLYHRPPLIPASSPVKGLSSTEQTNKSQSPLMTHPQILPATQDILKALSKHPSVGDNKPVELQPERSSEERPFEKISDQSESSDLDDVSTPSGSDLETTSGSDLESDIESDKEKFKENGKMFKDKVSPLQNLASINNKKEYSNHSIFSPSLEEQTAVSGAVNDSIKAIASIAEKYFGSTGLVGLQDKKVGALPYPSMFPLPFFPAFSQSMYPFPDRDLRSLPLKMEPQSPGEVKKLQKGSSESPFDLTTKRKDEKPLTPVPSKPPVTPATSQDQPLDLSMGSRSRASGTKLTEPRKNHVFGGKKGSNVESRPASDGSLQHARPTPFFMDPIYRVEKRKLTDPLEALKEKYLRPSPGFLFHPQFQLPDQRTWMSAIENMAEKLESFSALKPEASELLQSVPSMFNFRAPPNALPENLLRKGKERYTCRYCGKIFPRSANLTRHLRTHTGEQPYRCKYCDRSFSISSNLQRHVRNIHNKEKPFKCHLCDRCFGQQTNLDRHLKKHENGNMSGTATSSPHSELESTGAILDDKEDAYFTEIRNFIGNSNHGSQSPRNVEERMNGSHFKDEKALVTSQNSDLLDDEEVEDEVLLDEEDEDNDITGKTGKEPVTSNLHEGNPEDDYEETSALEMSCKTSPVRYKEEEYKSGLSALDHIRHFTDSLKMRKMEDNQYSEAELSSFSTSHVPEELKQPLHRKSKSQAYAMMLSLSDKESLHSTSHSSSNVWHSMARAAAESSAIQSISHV

How the values were obtained:
[1] = target: PAX8-BioID-HA fusion protein (human (endogenous in IGROV-1)) (UniProt Q06710); experiment: proximity labelling; BioID-WB: IGROV-1 PAX8-BioID clones B3 and C5, 50 uM biotin or DMSO for 24 h, RIPA lysate, streptavidin beads overnight at 4 °C, Western blot
[2] = target: PAX8-BioID-HA fusion protein (human (endogenous in IGROV-1)) (UniProt Q06710); experiment: proximity labelling; BioID with quantitative TMT mass spectrometry: IGROV-1 PAX8-BioID cells with or without 10 uM biotin for 24 h, RIPA lysate, streptavidin-agarose enrichment, on-bead digestion

| Substance | binding [1] | binding [2] |
| --- | --- | --- |
| MDS1-EVI1 (PRDM3) (from UniProt Q03112-3 1-1239) | binds |  |
| MECOM (from UniProt Q03112-3 1-1239) |  | binds |
